According to US20130058934A1:
Where a chain is given by its changes, count along the chain named. Numbers in names are those of the source. Results are given in words; binding and its absence hold for the method and conditions named. Some results given as binding are weak or reduced against the parent protein; the word gives no strength.

The chains behind the UniProt entries cited, without tags or fusion partners. Residues count along the entry.
UniProt O75581, residues 20-1370: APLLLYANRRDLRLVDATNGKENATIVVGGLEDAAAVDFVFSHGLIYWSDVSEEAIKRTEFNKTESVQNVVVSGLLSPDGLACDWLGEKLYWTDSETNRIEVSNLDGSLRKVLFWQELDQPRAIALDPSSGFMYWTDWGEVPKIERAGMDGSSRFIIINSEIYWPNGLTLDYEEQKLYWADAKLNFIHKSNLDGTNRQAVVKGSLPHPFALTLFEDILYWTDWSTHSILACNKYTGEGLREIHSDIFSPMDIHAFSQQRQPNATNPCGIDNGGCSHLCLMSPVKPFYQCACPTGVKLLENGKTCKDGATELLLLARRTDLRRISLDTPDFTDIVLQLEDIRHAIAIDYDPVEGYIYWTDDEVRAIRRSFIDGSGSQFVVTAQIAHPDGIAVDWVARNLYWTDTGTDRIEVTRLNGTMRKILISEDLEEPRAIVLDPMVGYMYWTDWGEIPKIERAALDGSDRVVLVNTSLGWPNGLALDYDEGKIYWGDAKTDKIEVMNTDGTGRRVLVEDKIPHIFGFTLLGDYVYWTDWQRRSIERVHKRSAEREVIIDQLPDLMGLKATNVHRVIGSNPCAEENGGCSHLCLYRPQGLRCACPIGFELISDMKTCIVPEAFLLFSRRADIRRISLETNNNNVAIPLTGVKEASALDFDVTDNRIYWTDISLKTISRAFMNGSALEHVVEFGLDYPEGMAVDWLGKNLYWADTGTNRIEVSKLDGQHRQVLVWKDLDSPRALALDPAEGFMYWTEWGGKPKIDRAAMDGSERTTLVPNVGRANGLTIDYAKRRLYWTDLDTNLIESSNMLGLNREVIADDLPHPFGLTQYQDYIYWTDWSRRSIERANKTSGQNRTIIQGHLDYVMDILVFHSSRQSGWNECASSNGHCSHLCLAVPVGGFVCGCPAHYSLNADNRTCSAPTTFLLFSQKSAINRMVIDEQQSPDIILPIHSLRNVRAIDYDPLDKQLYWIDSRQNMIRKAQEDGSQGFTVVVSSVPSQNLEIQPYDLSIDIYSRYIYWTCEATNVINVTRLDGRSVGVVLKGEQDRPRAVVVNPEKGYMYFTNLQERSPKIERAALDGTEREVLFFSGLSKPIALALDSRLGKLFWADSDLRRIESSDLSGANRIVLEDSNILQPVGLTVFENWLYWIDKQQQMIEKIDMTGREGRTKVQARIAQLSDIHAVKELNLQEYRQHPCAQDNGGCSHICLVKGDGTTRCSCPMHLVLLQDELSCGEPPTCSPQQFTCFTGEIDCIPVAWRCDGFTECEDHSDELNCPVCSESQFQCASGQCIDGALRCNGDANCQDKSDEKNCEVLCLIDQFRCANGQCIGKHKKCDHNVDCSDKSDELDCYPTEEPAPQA

B1: scFv06475 VH:G34V (scFv, name in Kabat numbering, V domains shown)
VH: QVQLKESGPALVKPTQTLTLTCTFSGFSLSNRGVGVGWIRQPPGKALEWLAWIDWDDDKSYSTSLKTRLTISKDTSKNQVVLTMTNMDPVDTATYYCARMHLPLVFDSWGQGTLVTVSS
VL: DIVLTQSPATLSLSPGERATLSCRASQFIGSRYLAWYQQKPGQAPRLLIYGASNRATGVPARFSGSGSGTDFTLTISSLEPEDFATYYCQQYYDYPQTFGQGTKVEIK
B2: scFv06475 VH:I37F (scFv, name in Kabat numbering, V domains shown)
VH: B1 VH with V34G, I39F
VL: B1 VL

Biological target: LRP6-Fc (R&D Systems, catalog No: 1505-LR) (human) (UniProt O75581)
Assay: Proteon XPR36 kinetics with LRP6-Fc

| Binder | binding |
| --- | --- |
| B1 | binds |
| B2 | binds |
